PubChem BioAssay AID686938 | Drosophila RNAi Screening Center – 2013
The deposit covers about 23,000 reagents; below is an unselected part of those that have a named target and a result. Over the whole deposit, 75 (0.33%) got an active call. 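Raw plate signals without normalisation; calls rest on plate z-scores that were not deposited; ratio present for only 364 wells.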 Reagents against one gene are numbered here. A plus sign joins genes that one reagent is predicted to hit. Not given: the dose of the treatment.

- Purpose: 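Looking for CRAC channel components and the factors controlling them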 (primary screen)
- Cell system: Drosophila S2R+ cells
- Knock-down reagent: long dsRNA against Drosophila genes, about 0.25 µg dsRNA per well, roughly 10,000 cells
- Duration: 5 days of knock-down before the calcium assay
- Challenge: thapsigargin (SERCA pump blocker) to empty calcium stores; entry signal taken 4 min after adding it
- Detection: 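Per-well fluo-4 fluorescence in two replicates, unnormalised, measured in resting cells and 4 min after store depletion by the SERCA blocker thapsigargin; ratio of the two present in few wells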
- Direction: calcium entry signal: higher = stronger calcium signal after store depletion; resting calcium signal: higher = higher resting calcium signal
- Hit rule: 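Called when the plate z-score of the entry-to-rest ratio, mean of duplicates, falls below −3; wells with low overall dye signal (Fmax z below −2) or more than five off-targets excluded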
- Calls: active = strongly reduced calcium entry; inactive = no strong reduction

gene knocked down | dsRNA no. | calcium entry signal, replicate 1 (fluorescence units) | calcium entry signal, replicate 2 (fluorescence units) | resting calcium signal, replicate 1 (fluorescence units) | resting calcium signal, replicate 2 (fluorescence units) | activity call
CG15710 | 1 | 5.32e7 | 4.53e7 | 2.16e7 | 2.05e7 | inactive
CG3071 | 1 | 3.50e7 | 3.83e7 | 1.63e7 | 1.72e7 | inactive
shf (shifted) | 1 | 2.94e7 | 4.11e7 | 1.43e7 | 2.07e7 | inactive
CG3894 | 1 | 2.85e7 | 3.80e7 | 1.33e7 | 1.59e7 | inactive
CG3894 | 2 | 2.34e7 | 3.49e7 | 1.22e7 | 1.63e7 | inactive
CG3894 | 3 | 4.46e7 | 2.22e7 | 2.44e7 | 1.13e7 | inactive
Cpr62Bc (Cuticular protein 62Bc) | 1 | 3.47e7 | 4.13e7 | 1.81e7 | 1.97e7 | inactive
sstn (stepping stone) | 1 | 5.49e7 | 6.65e7 | 2.53e7 | 2.39e7 | inactive
APC7 (Anaphase Promoting Complex subunit 7) | 1 | 3.17e7 | 3.68e7 | 1.52e7 | 1.63e7 | inactive
ACXC (Adenylyl cyclase X C) | 1 | 5.37e7 | 3.32e7 | 2.30e7 | 1.55e7 | inactive
Rab9Db + Rab9D + Rab9E | 1 | 3.08e7 | 3.73e7 | 1.38e7 | 1.87e7 | inactive
CG14043 | 1 | 4.03e7 | 3.75e7 | 1.82e7 | 1.61e7 | inactive
CG7557 | 1 | 4.78e7 | 3.08e7 | 2.92e7 | 1.36e7 | inactive
Sgf11 (SAGA associated factor 11kDa) | 1 | 3.67e7 | 4.53e7 | 1.86e7 | 1.98e7 | inactive
CG2964 | 1 | 4.27e7 | 5.83e7 | 1.88e7 | 2.41e7 | inactive
CG14069 | 1 | 2.96e7 | 3.43e7 | 1.38e7 | 1.57e7 | inactive
CG13196 | 1 | 3.16e7 | 3.70e7 | 1.65e7 | 1.82e7 | inactive
CG3907 | 1 | 2.65e7 | 3.37e7 | 1.43e7 | 1.55e7 | inactive
CG30116 | 1 | 3.51e7 | 3.68e7 | 1.69e7 | 1.83e7 | inactive
CG30116 | 2 | 5.28e7 | 4.89e7 | 2.16e7 | 2.22e7 | inactive
CG7168 | 1 | 3.64e7 | 3.76e7 | 1.74e7 | 1.70e7 | inactive
mag (magro) | 1 | 3.55e7 | 3.92e7 | 1.66e7 | 2.69e7 | inactive
CG17768 + LSm-4 | 1 | 2.95e7 | 3.82e7 | 1.47e7 | 1.78e7 | inactive
CG14618 | 1 | 4.43e7 | 4.76e7 | 2.02e7 | 1.95e7 | inactive
AlkB | 1 | 3.10e7 | 3.32e7 | 1.60e7 | 1.56e7 | inactive
Or10a (Odorant receptor 10a) | 1 | 3.07e7 | 3.86e7 | 1.44e7 | 1.87e7 | inactive
Sik3 (Salt-inducible kinase 3) | 1 | 5.81e7 | 6.80e7 | 2.48e7 | 3.09e7 | inactive
Sik3 (Salt-inducible kinase 3) | 2 | 3.40e7 | 3.77e7 | 1.67e7 | 1.64e7 | inactive
CG32645 | 1 | 4.20e7 | 6.57e7 | 2.01e7 | 2.97e7 | inactive
CG32645 | 2 | 4.43e7 | 6.80e7 | 2.16e7 | 3.07e7 | inactive
Zasp52 (Z band alternatively spliced PDZ-motif protein 52) | 1 | 2.56e7 | 3.77e7 | 1.23e7 | 1.92e7 | inactive
Zasp52 (Z band alternatively spliced PDZ-motif protein 52) | 2 | 2.65e7 | 5.01e7 | 1.18e7 | 2.33e7 | inactive
CG5292 | 1 | 3.63e7 | 5.46e7 | 1.70e7 | 5.69e7 | inactive
NaPi-T (Na[+]-dependent inorganic phosphate cotransporter) | 1 | 3.40e7 | 4.06e7 | 1.72e7 | 1.74e7 | inactive
CG32638 | 1 | 3.06e7 | 3.89e7 | 1.51e7 | 1.60e7 | inactive
PICK1 (Protein interacting with C kinase 1) | 1 | 3.98e7 | 4.21e7 | 2.00e7 | 1.76e7 | inactive
PICK1 (Protein interacting with C kinase 1) | 2 | 4.50e7 | 2.68e7 | 1.90e7 | 1.42e7 | inactive
CG13403 | 1 | 2.66e7 | 3.63e7 | 1.43e7 | 1.60e7 | inactive
pasha (partner of drosha) | 1 | 2.70e7 | 3.49e7 | 1.30e7 | 1.67e7 | inactive
CG30412 | 1 | 3.60e7 | 4.54e7 | 1.82e7 | 1.86e7 | inactive
